Data as given in PubChem BioAssay AID1224830 (NIAID, 2016)

Test: 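Host factors that control LPS-induced TNF expression in human macrophages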 (primary screen)
Cells: human THP-1 monocytic leukaemia cells, TNF dual-luciferase reporter clone, PMA-differentiated to macrophage-like cells
Reagents: siRNA pool against human genes, 50 nM
Duration: LPS for 4 h, given about 3 days after siRNA transfection
Conditions: bacterial LPS (TLR4 ligand), 10 ng/ml
Detection: 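TNF firefly reporter luminescence divided by renilla, normalised to the plate median, then turned into a robust z-score for each replicate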
Scale: TNF reporter robust z-score: higher = stronger TNF reporter response to LPS
Rule for the call: 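a well is active when its z-score exceeds 2.8 or falls below -1.5; control wells carry no call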
Shown is a random part of about 18,000 reagents. About 2,900 of all reagents (16%) count as active. 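Calls are made per well; low scores hint the gene aids the LPS response, high scores that it dampens it.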 Repeated entries: four replicate wells of each siRNA pool.

no.	gene knocked down	TNF reporter robust z-score	activity call
1	CBX8	-0.62	inactive
2	CBX8	-0.1	inactive
3	CBX8	-0.9	inactive
4	CBX8	-0.04	inactive
5	PAPPA	0.76	inactive
6	PAPPA	0.44	inactive
7	PAPPA	-0.31	inactive
8	PAPPA	3.42	active
9	ATP6V1B2	-1.81	active
10	ATP6V1B2	-1.39	inactive
11	ATP6V1B2	-1.48	inactive
12	ATP6V1B2	-1.25	inactive
13	HAPLN3	2.89	active
14	HAPLN3	4.53	active
15	HAPLN3	3.37	active
16	HAPLN3	2.07	inactive
17	TRAPPC6B	0.52	inactive
18	TRAPPC6B	1.03	inactive
19	TRAPPC6B	-0.45	inactive
20	TRAPPC6B	-0.59	inactive
21	PTPRD	0.84	inactive
22	PTPRD	-0.48	inactive
23	PTPRD	0.83	inactive
24	PTPRD	2.22	inactive
25	HSH2D	1.76	inactive
26	HSH2D	0.25	inactive
27	HSH2D	0.45	inactive
28	HSH2D	1.06	inactive
29	FCRL6	0.6	inactive
30	FCRL6	0.67	inactive
31	FCRL6	1.45	inactive
32	FCRL6	1.35	inactive
33	PACSIN1	-1.37	inactive
34	PACSIN1	-1.35	inactive
35	PACSIN1	-1.51	active
36	PACSIN1	-1.08	inactive
37	BTLA	-1.34	inactive
38	BTLA	-0.75	inactive
39	BTLA	-0.8	inactive
40	BTLA	-1.11	inactive
41	CPA3	1.08	inactive
42	CPA3	3.3	active
43	CPA3	7.47	active
44	CPA3	1.37	inactive
45	PRAMEF3 (retired record)	3.94	active
46	PRAMEF3 (retired record)	2.87	active
47	PRAMEF3 (retired record)	0.62	inactive
48	PRAMEF3 (retired record)	1.64	inactive
49	PHPT1	0.53	inactive
50	PHPT1	0.15	inactive
51	PHPT1	-0.01	inactive
52	PHPT1	-0.31	inactive
53	OR51T1	-0.42	inactive
54	OR51T1	-0.17	inactive
55	OR51T1	-1.04	inactive
56	OR51T1	-0.18	inactive
57	VPS4A	1.17	inactive
58	VPS4A	0.8	inactive
59	VPS4A	-0.44	inactive
60	VPS4A	0.36	inactive
61	OR4D2	3.02	active
62	OR4D2	2.72	inactive
63	OR4D2	2.27	inactive
64	OR4D2	2.74	inactive
65	ZSCAN21	0.71	inactive
66	ZSCAN21	0.59	inactive
67	ZSCAN21	0.07	inactive
68	ZSCAN21	0.44	inactive
69	COMMD4	-0.19	inactive
70	COMMD4	0.38	inactive
71	COMMD4	0.29	inactive
72	COMMD4	-1.39	inactive
73	SWT1	0.64	inactive
74	SWT1	0.11	inactive
75	SWT1	-0.68	inactive
76	SWT1	-0.37	inactive

Already shown: 4 of the entries above.
no.	gene knocked down	TNF reporter robust z-score	activity call
47	PRAMEF3 (retired record)	0.62	inactive
48	PRAMEF3 (retired record)	1.64	inactive
49	PHPT1	0.53	inactive
50	PHPT1	0.15	inactive
